Data reported in article PMC4337721.
No constants are given. Whether binding was seen depends on the method and setting. For some assays here: Binding can be weak; no strength is given.

Amino acid sequences for entries named in this document (tags omitted). A change or cut given only in a name is not applied to a line headed by its entry. Chains listed by the source or under a name are the forms on record and can include a tag or linker. Residues count along the entry.
UniProt P11021: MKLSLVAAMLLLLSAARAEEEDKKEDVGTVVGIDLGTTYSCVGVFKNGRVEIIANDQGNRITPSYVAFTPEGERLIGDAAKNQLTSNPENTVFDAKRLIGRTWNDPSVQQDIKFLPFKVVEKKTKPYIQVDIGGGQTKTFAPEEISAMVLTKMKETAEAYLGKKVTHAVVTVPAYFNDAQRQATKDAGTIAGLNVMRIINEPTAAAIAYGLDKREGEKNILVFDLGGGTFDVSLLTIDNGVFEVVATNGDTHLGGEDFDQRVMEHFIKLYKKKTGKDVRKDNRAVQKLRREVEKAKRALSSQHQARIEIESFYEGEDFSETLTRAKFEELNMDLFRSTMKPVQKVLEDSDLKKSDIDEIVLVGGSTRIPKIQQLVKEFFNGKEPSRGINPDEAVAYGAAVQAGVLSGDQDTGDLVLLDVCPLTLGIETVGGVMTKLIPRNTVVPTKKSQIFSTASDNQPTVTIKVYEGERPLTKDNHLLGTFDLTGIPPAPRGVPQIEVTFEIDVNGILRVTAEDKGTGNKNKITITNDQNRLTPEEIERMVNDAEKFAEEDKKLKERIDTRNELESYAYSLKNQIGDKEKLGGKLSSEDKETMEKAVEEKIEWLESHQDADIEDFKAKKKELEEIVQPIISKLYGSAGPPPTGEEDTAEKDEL
His6-tagged full-length BiP (residues 28–654): residues 28-654 of P11021
BiP ATPase domain (residues 28–405), His6-tag removed: residues 28-405 of P11021
His6-tagged BiP substrate binding domain (residues 422–654): residues 422-654 of P11021
UniProt Q9NZJ5, residues 54-509: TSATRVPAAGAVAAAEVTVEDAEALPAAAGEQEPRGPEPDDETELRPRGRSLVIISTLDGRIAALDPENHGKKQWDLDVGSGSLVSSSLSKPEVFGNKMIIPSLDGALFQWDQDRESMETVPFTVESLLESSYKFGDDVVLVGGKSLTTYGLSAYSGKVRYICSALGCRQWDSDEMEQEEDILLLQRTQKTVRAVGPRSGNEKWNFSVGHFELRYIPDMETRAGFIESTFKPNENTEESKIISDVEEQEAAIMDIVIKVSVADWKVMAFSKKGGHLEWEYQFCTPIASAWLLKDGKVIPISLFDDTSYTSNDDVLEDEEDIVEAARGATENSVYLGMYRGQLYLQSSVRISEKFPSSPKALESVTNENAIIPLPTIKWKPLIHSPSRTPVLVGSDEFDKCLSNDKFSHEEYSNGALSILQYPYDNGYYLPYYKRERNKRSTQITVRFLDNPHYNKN

Assays:
[1] = biological target: BiP ATPase domain (residues 28–405), His6-tag removed (human) (UniProt P11021); test: MST; Monolith NT.115; buffer B (50 mM HEPES pH 7.5, 75 mM NaCl, 10% glycerol, 1 mM TCEP), no nucleotide; one partner labelled (Red-NHS) at 50 nM, sixteen twofold dilutions of the unlabelled partner (which was labelled is not told); 25°C; three independent experiments averaged; both purified
[2] = biological target: Perk luminal domain, complete (region I–V, residues 54–509) (human) (UniProt Q9NZJ5); test: as above
[3] = biological target: His6-tagged full-length BiP (residues 28–654) (human) (UniProt P11021); test: pull-down; His6-tagged BiP protein (25 μM) held on TALON resin, untagged Ire1 LD, Perk LD or CH1 at 500 μM added, 1 hr RT, buffer B; SDS-PAGE, coomassie; both purified
[4] = biological target: Perk luminal domain, complete (region I–V, residues 54–509) (human) (UniProt Q9NZJ5); test: as above
[5] = biological target: His6-tagged BiP substrate binding domain (residues 422–654) (human) (UniProt P11021); test: as above

Q: For “unfolded protein CH1 (immunoglobulin constant heavy chain domain) (from UniProt P01868) (domain or fragment)”, which binding [1] is on record?
A: no binding

Q: And the binding [2]?
A: no binding

Q: What about the binding [3] of the same substance?
A: binds

Q: What about the binding [4] of the same substance?
A: no binding

Q: And the binding [5]?
A: binds
